Data as given in US11851642B2, “Test device” (HITACHI HIGH-TECH CORPORATION, priority 2015, dated 2023).
Where two headings read alike, the source gives them in different places.

Assays:
[1] = test system: Staphylococcus aureus separated from the patient A; experiment: antimicrobial susceptibility testing by microscopic observation, areas of the bacteria; type: cell-based; conditions: 5 h, read-out: concentration at which the proliferation is interrupted (MIC determination result)
Source text: (§1) In order to perform the antimicrobial susceptibility testing, antimicrobial agents different from each other are set so as to be respectively contained in the culture fluids in each of the wells in particular concentrations. An order of the culturing is as follows. First, the bacterial suspension is introduced into the culture plate 18. Then, the bacterial suspension is in a state of being mixed with the culture fluid which is included in each of the wells, and the temperature controller 16 is set to a temperature of approximately 35° C. Furthermore, culture is performed by performing incubation such that the temperature of each of the wells in the culture plate 18 reaches the set temperature. Then, in the bacteriological testing instrument 1, while performing the incubation, the bacteria included in each of the wells can be monitored through the microscopic observation optical system. The microscopic observation may be performed for a set period of time from the start of the incubation till the end thereof by continuously monitoring the state of bacterial proliferation. In addition, the monitoring may be performed at the set time after setting appropriate time, and the monitoring result can be compared with the monitoring result when the incubation is started. In addition, similar to the bacteriological testing instrument in the related art, the turbidity of each of the wells may be measured through the turbidity measurement optical system while incubating the culture plate 18. The measured result may be compared with the monitored result of the microscopic observation optical system.
(§2) The processor determines whether the bacteria proliferate or the proliferation is interrupted under the corresponding culture condition, based on the microscopic image to which the above-described necessary treatments are performed. […] More specifically, based on the image after the treatment illustrated in FIGS. 4 to 6, for example, the areas of the bacteria are calculated, and it is determined whether or not the proliferation is performed by creating the graph as illustrated in FIG. 12. […]

[2] = test system: Staphylococcus aureus separated from the patient B; experiment: as above; type: cell-based; conditions: 5 h, read-out: concentration at which the proliferation is interrupted (MIC determination result)
Source text: as §1, §2

MIC ([1]; images within 300 minutes from the start of culture (FIG. 18, FIG. 19(a))) [µg/mL]	Structure (SMILES)	MIC [1] [µg/mL]	MIC [2] [µg/mL]
–	CN[C@H](CC(C)C)C(=O)N[C@H]1C(=O)N[C@@H](CC(N)=O)C(=O)N[C@H]2C(=O)N[C@H]3C(=O)N[C@H](C(=O)N[C@H](C(=O)O)c4cc(O)cc(O)c4-c4cc3ccc4O)[C@H](O)c3ccc(c(Cl)c3)Oc3cc2cc(c3O[C@@H]2O[C@H](CO)[C@@H](O)[C@H](O)[C@H]2O[C@H]2C[C@](C)(N)[C@H](O)[C@H](C)O2)Oc2ccc(cc2Cl)[C@H]1O [vancomycin]	≥ 0.5	≥ 1
≥ 0.25	CC1(C)S[C@@H]2[C@H](NC(=O)[C@H](N)c3ccccc3)C(=O)N2[C@H]1C(=O)O [ampicillin]	–	–
